This note sets out measurements from paper PMC5824958.

For the test, the target named is T1, BRI2 (integral membrane protein 2B) (rat (endogenous in brain)) (UniProt Q5XIE8).
T1 sequence: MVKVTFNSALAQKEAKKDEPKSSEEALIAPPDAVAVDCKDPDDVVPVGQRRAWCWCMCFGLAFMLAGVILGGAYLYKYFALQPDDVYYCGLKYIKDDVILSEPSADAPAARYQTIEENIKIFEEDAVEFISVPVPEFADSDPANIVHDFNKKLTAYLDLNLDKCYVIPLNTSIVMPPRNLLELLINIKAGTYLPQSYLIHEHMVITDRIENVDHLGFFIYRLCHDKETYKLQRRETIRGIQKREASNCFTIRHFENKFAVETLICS
Put plainly: affinity purification with mass spectrometry; mouse anti-BRI2 antibody (N-terminal region) on Dynabeads Protein G; pre-cleared rat cerebral cortex, hippocampus and cerebellum lysates (50 mM Tris-HCl pH 8.0, 120 mM NaCl, 4% CHAPS), overnight at 4 °C; co-precipitated proteins identified by nano-HPLC-MS/MS; hits absent from the two mock IPs or with a PSM ratio >= 2.0.

Results are given in words; binding and its absence hold for the method and conditions named. Binding seen in cells or lysates may run through a third protein. A yes stands for co-enrichment or nearness to the bait. Other partners may have been found.

B1: Neurofilament light polypeptide (protein, UniProt P19527 1-542)
chain: MSSFSYEPYFSTSYKRRYVETPRVHISSVRSGYSTARSAYSSYSAPVSSSLSVRRSYSSSSGSLMPSLENLDLSQVAAISNDLKSIRTQEKAQLQDLNDRFASFIERVHELEQQNKVLEAELLVLRQKHSEPSRFRALYEQEIRDLRLAAEDATNEKQALQGEREGLEETLRNLQARYEEEVLSREDAEGRLMEARKGADEAALARAELEKRIDSLMDEIAFLKKVHEEEIAELQAQIQYAQISVEMDVSSKPDLSAALKDIRAQYEKLAAKNMQNAEEWFKSRFTVLTESAAKNTDAVRAAKDEVSESRRLLKAKTLEIEACRGMNEALEKQLQELEDKQNADISAMQDTINKLENELRSTKSEMARYLKEYQDLLNVKMALDIEIAAYRKLLEGEETRLSFTSVGSITSGYSQSSQVFGRSAYSGLQSSSYLMSARAFPAYYTSHVQEEQSEVEETIEATKAEEAKDEPPSEGEAEEEEKEKEEGEEEEGAEEEEAAKDESEDAKEEEGGEGEEEDTKESEEEEKKEESAGEEQAAKKKD
On to B1, for which the binding result was “binds”.

B2: Myelin proteolipid protein (protein, UniProt P60203 1-277)
chain: MGLLECCARCLVGAPFASLVATGLCFFGVALFCGCGHEALTGTEKLIETYFSKNYQDYEYLINVIHAFQYVIYGTASFFFLYGALLLAEGFYTTGAVRQIFGDYKTTICGKGLSATVTGGQKGRGSRGQHQAHSLERVCHCLGKWLGHPDKFVGITYALTVVWLLVFACSAVPVYIYFNTWTTCQSIAFPSKTSASIGSLCADARMYGVLPWNAFPGKVCGSNLLSICKTAEFQMTFHLFIAAFVGAAATLVSLLTFMIAATYNFAVLKLMGRGTKF
In the case of B2, the binding result was “binds”.

B3: Mitochondrial glutamate carrier 2 (protein, UniProt Q505J6 1-320)
chain: MIACRMSSQDLSITAKLINGGIAGLVGVTCVFPIDLAKTRLQNQQGKDVYKGMTDCLVKTARAEGFLGMYRGAAVNLTLVTPEKAIKLAANDFLRQLLMQDGTQRNLKMEMLAGCGAGICQVVITCPMEMLKIQLQDAGRLAVCQQASASATPTSRPYSTGSTSTHRRPSATLIAWELLRTQGLSGLYRGLGATLLRDIPFSIIYFPLFANLNQLGVSELTGKASFTHSFVAGCAAGSVSAVAVTPLDVLKTRIQTLKKGLGEDTYRGVTDCARKLWTQEGAAAFMKGAGCRALVIAPLFGIAQGVYFIGIGERILKCFE
As to B3, the binding entry was “binds”.

B4: Neurochondrin (protein, UniProt O35095 1-729)
chain: MSCCDLAAAGQLGKAGIMASDCEPALNQAESRNPTLERYLGALREAKNDSEQFAALLLVTKAVKAGDIDAKTRRRIFDAVGFTFPNRLLTTKEAPDGCPDHVLRALGVALLACFCSDPELASHPQVLNKIPILCTFLTARGDPDDAARRSMIDDTYQCLTAVAGTPRGPRHLIAGGTVSALCQAYLGHGYGFDQALALLVGLLAAAETQCWKEAEPDLLAVLRGLSEDFQRAEDASKFELCQLLPLFLPPTTVPPECHRDLQAGLARILGSKLSSWQRNPALKLAARLAHACGSDWIPVGSSGSKFLALLVNLACVEVRLALEETGTEVKEDVVTACYALMELGIQECTRCEQSLLKEPQKVQLVSIMKEAIGAVIHYLLRVGPEKQKEPFVFASVRILGAWLAEETSSLRKEVCQLLPFLVRYAKTLYEEAEEASDISQQVANLAISPTTPGPAWPGDALRLLLPGWCHLTVEDGPREILIKEGAPSLLCKYFLQQWELTSPGHDTSVLPDSVEIGLQTCCHIFLNLVVTAPGLIKRDACFTSLMNTLMTSLPSLVQQQGRLLLAANVATLGLLMARLLSTSPALQGTPASRGFFAAAILFLSQSHVARATPGSDQAVLALSPDYEGIWADLQELWFLGMQAFTGCVPLLPWLAPAALRSRWPQELLQLLGSVSPNSVKPEMVAAYQGVLVELARANRLCREAMRLQAGEETASHYRMAALEQCLSEP
On to B4, for which the binding entry is listed as “binds”.

B5: Myelin-oligodendrocyte glycoprotein (protein, UniProt Q63345 28-245)
chain: GQFRVIGPGHPIRALVGDEAELPCRISPGKNATGMEVGWYRSPFSRVVHLYRNGKDQDAEQAPEYRGRTELLKESIGEGKVALRIQNVRFSDEGGYTCFFRDHSYQEEAAVELKVEDPFYWINPGVLALIALVPMLLLQVSVGLVFLFLQHRLRGKLRAEVENLHRTFDPHFLRVPCWKITLFVIVPVLGPLVALIICYNWLHRRLAGQFLEELRNPF
For B5, the binding entry was “binds”.

B6: Myelin-associated glycoprotein (protein, UniProt P07722 20-626)
chain: GHWGAWMPSSISAFEGTCVSIPCRFDFPDELRPAVVHGVWYFNSPYPKNYPPVVFKSRTQVVHESFQGRSRLLGDLGLRNCTLLLSTLSPELGGKYYFRGDLGGYNQYTFSEHSVLDIINTPNIVVPPEVVAGTEVEVSCMVPDNCPELRPELSWLGHEGLGEPTVLGRLREDEGTWVQVSLLHFVPTREANGHRLGCQAAFPNTTLQFEGYASLDVKYPPVIVEMNSSVEAIEGSHVSLLCGADSNPPPLLTWMRDGMVLREAVAESLYLDLEEVTPAEDGIYACLAENAYGQDNRTVELSVMYAPWKPTVNGTVVAVEGETVSILCSTQSNPDPILTIFKEKQILATVIYESQLQLELPAVTPEDDGEYWCVAENQYGQRATAFNLSVEFAPIILLESHCAAARDTVQCLCVVKSNPEPSVAFELPSRNVTVNETEREFVYSERSGLLLTSILTLRGQAQAPPRVICTSRNLYGTQSLELPFQGAHRLMWAKIGPVGAVVAFAILIAIVCYITQTRRKKNVTESPSFSAGDNPHVLYSPEFRISGAPDKYESEKRLGSERRLLGLRGEPPELDLSYSHSDLGKRPTKDSYTLTEELAEYAEIRVK
For B6, the binding entry is reported as “binds”.

B7: Neuromodulin (protein, UniProt P07936 1-226)
chain: MLCCMRRTKQVEKNDEDQKIEQDGVKPEDKAHKAATKIQASFRGHITRKKLKDEKKGDAPAAEAEAKEKDDAPVADGVEKKEGDGSATTDAAPATSPKAEEPSKAGDAPSEEKKGEGDAAPSEEKAGSAETESAAKATTDNSPSSKAEDGPAKEEPKQADVPAAVTDAAATTPAAEDAAKAAQPPTETAESSQAEEEKEAVDEAKPKESARQDEGKEDPEADQEHA
In the case of B7, the binding entry is listed as “binds”.

B8: Microtubule-associated protein 6 (protein, UniProt Q63560 1-952)
chain: MAWPCITRACCIARFWNQLDKADIAVPLVFTKYSEATEHPGAPPQPPAPPQPGLAPPSRAVAIETQPAQGESDAVARATGPAPGPSGDRETAAAPGRSGLGLGAASGSTSGSGPADSVMRQDYRAWKVQRPEPSCRPRSEYQPSDAPFERETQYQKDFRAWPLPRRGDHPWIPKPVQIPATSQPSPPVLGMPKRRPQSQERGPIQLSADARDPEGAGGAGVPAAGKASGADQRDTRRKAGPAWMVTRTEGHEEKPLPPAQSQTQEGGPAAGKASGADQRDTRRKAGPAWMVTRTEGHEEKPLPPAQSQTQEGGPAAGKASGADQRDTRRKAGPAWMVTRTEGHEETPLPPAQSQTQEGGPAAGKASGADQRDTRRKAGPAWMVTRTEGHEETPLPPAQSQTQEGGPAAGKASGADERDTRRKAGPAWMVRRSEGHEQTTAAHAQGTGPEGGKGRAVADALNRQIREEVTSTVSSSYRNEFRAWTDIKPVKPIKAKPQYKPPDDKMVHETSYSAQFKGEASKPTTADNKVVDRRRIRSLYSEPFKESPKVEKPSVQSSKPKKTSTSQKPLRKAKDKQVASGQAAKKKTTESPSATKPDDKEQSKEMNNKLAEAKESRVKPTSDKNQGPVAKEPHKDQGPVAPGLPKGQGPAVQEPLKDQGPMVPGLPKDQAPVVPGSLKGQSPTAPGPPKDQGAVLLGPMKDLGPVAPASVKDQDHMASELLKNKDSVPLAPAKAQSPLLPEPLKNQSPVVPARAKDQSFPAPAPTPLKDPGPVIPEPEKDGAPMVPERRKDQNASIMASLKNEAPVASESVKNQGLGGPEPAKDTGTDLKGHGSVFVAPVKSQGPVVPEPTKGQDPIIPALAKDQGPILPEPPKNQGPPVVLGPIKNQDPVIPVPLKGQDPVVPAPTKDPGPTAPDPLKSQGPRGPQLPTVSPSPPVMIPTVPHAEYIEGSP
Take B8: the binding entry is reported as “binds”.

B9: Neurofilament medium polypeptide (protein, UniProt P12839 1-846)
chain: MSYTLDSLGNPSAYRRVPTETRSSFSRVSGSPSSGFRSQSWSRGSPSTVSSSYKRSALAPRLAYSSAMLSSAESSLDFSQSSSLLNGGSGGDYKLSRSNEKEQLQGLNDRFAGYIEKVHYLEQQNKEIEAEIHALRQKQASHAQLGDAYDQEIRELRATLEMVNHEKAQVQLDSDHLEEDIHRLKERFEEEARLRDDTEAAIRAVRKDIEESSMVKVELDKKVQSLQDEVAFLRSNHEEEVADLLAQIQASHITVERKDYLKTDISTALKEIRSQLECHSDQNMHQAEEWFKCRYAKLTEAAEQNKEAIRSAKEEIAEYRRQLQSKSIELESVRGTKESLERQLSDIEERHNHDLSSYQDTIQQLENELRGTKWEMARHLREYQDLLNVKMALDIEIAAYRKLLEGEETRFSTFSGSITGPLYTHRQPSVTISSKIQKTKVEAPKLKVQHKFVEEIIEETKVEDEKSEMEDALTVIAEELAASAKEEKEEAEEKEEEPEVEKSPVKSPEAKEEEEGEKEEEEEGQEEEEEEDEGVKSDQAEEGGSEKEGSSEKDEGEQEEEGETEAEGEGEEAEAKEEKKTEGKVEEMAIKEEIKVEKPEKAKSPVPKSPVEEVKPKPEAKAGKDEQKEEEKVEEKKEVAKESPKEEKVEKKEEKPKDVPDKKKAESPVKEKAVEEMITITKSVKVSLEKDTKEEKPQQQEKVKEKAEEEGGSEEEVGDKSPQESKKEDIAINGEVEGKEEEEQETQEKGSGQEEEKGVVTNGLDVSPAEEKKGEDRSDDKVVVTKKVEKITSEGGDGATKYITKSVTVTQKVEEHEETFEEKLVSTKKVEKVTSHAIVKEVTQGD
As to B9, the binding result is “binds”.

B10: Atlastin-1 (protein, UniProt Q6PST4 1-558)
chain: MAKSRRDRNSWGGFSEKSSDWSSEEEEPVRKAGPVQVLIVKDDHSFELDEAALNRILLSEAVRDKEVVAVSVAGAFRKGKSFLMDFMLRYMYNQESVDWVGDYNEPLTGFSWRGGSERETTGIQIWSEVFLINKLDGKKVAVLLMDTQGTFDSQSTLRDSATVFALSTMISSIQVYNLSQNVQEDDLQHLQLFTEYGRLAMEETFLKPFQSLIFLVRDWSFPYEFSYGADGGAKFLEKRLKVSGNQHEELQNVRKHIHSCFTNISCFLLPHPGLKVATNPNFDGKLKEIDDEFIKNLKILIPWLLSPESLDIKEINGNKITCRGLLEYFKAYIKIYQGEELPHPKSMLQATAEANNLAAVATAKDTYNKKMEEICGGDKPFLAPNDLQTKHLQLKEDSVKLFRGVKKMGGEEFSRRYLQQLESEIDELYIQYIKHNDSKNIFHAARTPATLFVVIFITYVIAGVTGFIGLDIIASLCNMIMGLTLITLCTWAYIRYSGEYRELGAVIDQVAAALWDQGSTNEALYKLYSAAATHRHLYQQAFPAPKSEPTEQPEKKKI
On to B10, for which the binding result is “binds”.
